Measured values published in publication PMC11510342, “Synthesis, Characterization, Bioavailability and Antimicrobial Studies of Cefuroxime-Based Organic Salts and Ionic Liquids” (Pharmaceutics, 2024).

Tests used:
[1] = tested on: Pseudomonas aeruginosa (ATCC 27853); assay: Antimicrobial activity, growth inhibition (OD 600 nm); assay type: cell-based; conditions: ATCC27853, 6 h, read-out: IC50 P. aeruginosa
3T3 murine fibroblasts = assay: Cytotoxicity on 3T3 cells (MTT assay); conditions: 24 h
[2] = tested on: Bacillus subtilis (ATCC 6633); assay: Antimicrobial activity, growth inhibition (OD 600 nm); assay type: cell-based; conditions: ATCC6633, 6 h, read-out: IC50 B. subtilis
[3] = tested on: Escherichia coli (ATCC 25922); assay: as above; assay type: cell-based; conditions: ATCC25922, 6 h, read-out: IC50 E. coli

CCCCCCCCCCCCCCCC[n+]1ccccc1.[Cl-] [[C16Py]Cl, reference compound]
IC50 [1]: 3.65 µM | Relative toxicity on 3T3 cells (comparison of IC50 values) (3T3 murine fibroblasts; MTT): approximately two-times less toxic | IC50 (3T3 murine fibroblasts; Mus musculus, Fibroblast, read-out: IC50 for toxicity on 3T3 murine fibroblasts): 30 µM | IC50 [2]: 2030 nM | IC50 [3]: 5.71 µM
